{
  "source": "patent US20220118104A1",
  "about": "(IntoCell, Inc., priority 2019, published 2022)",
  "data": [
    {"assay": "peptide synthesis", "details": "conjugation step", "units": {"conjugation yield": "%"}, "values": [
      {"substance": "Int-T1-a", "conjugation yield": 72},
      {"substance": "Int-T6-1", "conjugation yield": 25},
      {"substance": "Int-T5-1", "conjugation yield": 29},
      {"substance": "Int-T5-2", "conjugation yield": 38}
    ]}
  ]
}
